This is one part of the list.
Experiments:
Assay in all cases: log2 fold change, soluble protein after heating vs DMSO (PISA); higher = thermal stabilisation; K562 cells, 10 uM, 30 min; active = over 0.2 and 3.5 SD of the protein, either way, in both replicates (recomputed)
[1] = compound: CC[C@@H]1C(=O)N(C)c2cnc(Nc3ccc(C(=O)NC4CCN(C)CC4)cc3OC)nc2N1C1CCCC1
How it was run: (§1)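 Thermal stability values are relative to control samples and come from duplicates. They are expressed as log2 fold changes. For measurement, K562 cells (2×10^6 cells/mL) received 10 μM compound for 30 min, and aliquots were heated for 3 min over 48°C-58°C, pooled, and extracted at 4°C in PBS with 0.5% NP-40. Soluble protein, the supernatant after 21,000xg for 90 min, was quantified by TMTpro 16plex LC-MS/MS with equalised channel sums.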

Sequences of proteins named here, by UniProt entry; tags and fusion partners are left off. A change or cut given only in a name is not applied to a line headed by its entry.
UniProt P63010: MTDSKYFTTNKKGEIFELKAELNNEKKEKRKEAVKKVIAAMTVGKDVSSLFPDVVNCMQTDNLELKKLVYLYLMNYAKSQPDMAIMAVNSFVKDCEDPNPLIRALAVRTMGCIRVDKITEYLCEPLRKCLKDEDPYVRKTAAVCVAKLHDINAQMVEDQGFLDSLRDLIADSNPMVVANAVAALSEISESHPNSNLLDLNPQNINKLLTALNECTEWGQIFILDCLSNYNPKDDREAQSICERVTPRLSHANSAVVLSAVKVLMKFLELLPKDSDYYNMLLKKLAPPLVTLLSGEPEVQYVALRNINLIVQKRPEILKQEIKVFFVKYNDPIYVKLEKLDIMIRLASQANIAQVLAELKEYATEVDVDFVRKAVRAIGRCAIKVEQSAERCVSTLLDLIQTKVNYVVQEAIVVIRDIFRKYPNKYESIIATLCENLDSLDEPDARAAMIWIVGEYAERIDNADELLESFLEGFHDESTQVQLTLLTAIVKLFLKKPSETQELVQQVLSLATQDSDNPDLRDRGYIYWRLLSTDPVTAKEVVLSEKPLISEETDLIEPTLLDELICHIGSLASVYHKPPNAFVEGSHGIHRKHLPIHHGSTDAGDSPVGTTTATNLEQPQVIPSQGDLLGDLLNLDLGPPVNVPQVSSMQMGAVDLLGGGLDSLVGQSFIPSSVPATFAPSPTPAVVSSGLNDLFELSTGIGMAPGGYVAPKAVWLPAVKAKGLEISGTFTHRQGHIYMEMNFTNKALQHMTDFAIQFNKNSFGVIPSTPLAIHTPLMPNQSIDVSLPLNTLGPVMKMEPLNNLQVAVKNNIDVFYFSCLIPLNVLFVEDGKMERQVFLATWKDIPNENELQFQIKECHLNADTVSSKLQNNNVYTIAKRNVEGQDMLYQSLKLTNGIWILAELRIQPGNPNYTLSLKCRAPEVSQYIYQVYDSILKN
UniProt P10398: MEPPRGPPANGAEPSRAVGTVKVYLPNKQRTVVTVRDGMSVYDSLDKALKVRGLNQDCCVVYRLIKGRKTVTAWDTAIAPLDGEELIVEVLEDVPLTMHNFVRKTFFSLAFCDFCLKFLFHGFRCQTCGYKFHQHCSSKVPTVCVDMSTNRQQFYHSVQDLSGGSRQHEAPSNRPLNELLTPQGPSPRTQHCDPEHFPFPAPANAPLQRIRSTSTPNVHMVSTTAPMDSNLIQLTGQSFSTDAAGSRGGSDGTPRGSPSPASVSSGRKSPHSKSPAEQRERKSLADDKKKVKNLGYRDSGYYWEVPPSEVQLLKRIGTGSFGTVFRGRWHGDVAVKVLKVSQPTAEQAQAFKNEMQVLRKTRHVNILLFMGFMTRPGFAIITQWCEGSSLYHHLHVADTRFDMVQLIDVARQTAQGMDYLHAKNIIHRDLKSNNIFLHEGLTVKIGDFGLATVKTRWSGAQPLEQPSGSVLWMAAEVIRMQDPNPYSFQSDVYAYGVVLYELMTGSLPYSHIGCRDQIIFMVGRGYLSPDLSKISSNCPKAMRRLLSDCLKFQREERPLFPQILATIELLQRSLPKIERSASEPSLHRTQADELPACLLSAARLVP
UniProt P56377: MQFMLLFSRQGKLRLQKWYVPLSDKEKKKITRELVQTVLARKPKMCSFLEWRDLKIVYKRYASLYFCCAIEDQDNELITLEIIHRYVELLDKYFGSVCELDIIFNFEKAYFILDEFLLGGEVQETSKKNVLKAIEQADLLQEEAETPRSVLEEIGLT
UniProt Q8N6D5: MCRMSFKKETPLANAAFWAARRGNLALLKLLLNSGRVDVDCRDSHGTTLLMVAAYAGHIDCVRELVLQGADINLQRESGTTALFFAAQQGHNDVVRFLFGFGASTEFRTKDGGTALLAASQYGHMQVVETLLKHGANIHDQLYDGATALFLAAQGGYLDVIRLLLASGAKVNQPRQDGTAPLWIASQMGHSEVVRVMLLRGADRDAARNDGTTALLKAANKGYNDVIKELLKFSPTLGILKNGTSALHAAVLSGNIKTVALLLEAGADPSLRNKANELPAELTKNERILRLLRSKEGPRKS
UniProt P05090: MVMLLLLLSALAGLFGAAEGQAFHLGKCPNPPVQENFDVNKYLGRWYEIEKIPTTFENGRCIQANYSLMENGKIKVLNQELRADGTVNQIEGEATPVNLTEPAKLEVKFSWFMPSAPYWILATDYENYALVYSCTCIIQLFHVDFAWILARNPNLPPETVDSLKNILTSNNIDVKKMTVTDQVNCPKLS
UniProt P18085: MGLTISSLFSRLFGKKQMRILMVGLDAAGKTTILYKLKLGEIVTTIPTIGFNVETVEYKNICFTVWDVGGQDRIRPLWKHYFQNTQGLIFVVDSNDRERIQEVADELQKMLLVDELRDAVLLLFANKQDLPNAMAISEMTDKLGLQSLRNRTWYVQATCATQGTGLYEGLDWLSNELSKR
UniProt Q9NRY4: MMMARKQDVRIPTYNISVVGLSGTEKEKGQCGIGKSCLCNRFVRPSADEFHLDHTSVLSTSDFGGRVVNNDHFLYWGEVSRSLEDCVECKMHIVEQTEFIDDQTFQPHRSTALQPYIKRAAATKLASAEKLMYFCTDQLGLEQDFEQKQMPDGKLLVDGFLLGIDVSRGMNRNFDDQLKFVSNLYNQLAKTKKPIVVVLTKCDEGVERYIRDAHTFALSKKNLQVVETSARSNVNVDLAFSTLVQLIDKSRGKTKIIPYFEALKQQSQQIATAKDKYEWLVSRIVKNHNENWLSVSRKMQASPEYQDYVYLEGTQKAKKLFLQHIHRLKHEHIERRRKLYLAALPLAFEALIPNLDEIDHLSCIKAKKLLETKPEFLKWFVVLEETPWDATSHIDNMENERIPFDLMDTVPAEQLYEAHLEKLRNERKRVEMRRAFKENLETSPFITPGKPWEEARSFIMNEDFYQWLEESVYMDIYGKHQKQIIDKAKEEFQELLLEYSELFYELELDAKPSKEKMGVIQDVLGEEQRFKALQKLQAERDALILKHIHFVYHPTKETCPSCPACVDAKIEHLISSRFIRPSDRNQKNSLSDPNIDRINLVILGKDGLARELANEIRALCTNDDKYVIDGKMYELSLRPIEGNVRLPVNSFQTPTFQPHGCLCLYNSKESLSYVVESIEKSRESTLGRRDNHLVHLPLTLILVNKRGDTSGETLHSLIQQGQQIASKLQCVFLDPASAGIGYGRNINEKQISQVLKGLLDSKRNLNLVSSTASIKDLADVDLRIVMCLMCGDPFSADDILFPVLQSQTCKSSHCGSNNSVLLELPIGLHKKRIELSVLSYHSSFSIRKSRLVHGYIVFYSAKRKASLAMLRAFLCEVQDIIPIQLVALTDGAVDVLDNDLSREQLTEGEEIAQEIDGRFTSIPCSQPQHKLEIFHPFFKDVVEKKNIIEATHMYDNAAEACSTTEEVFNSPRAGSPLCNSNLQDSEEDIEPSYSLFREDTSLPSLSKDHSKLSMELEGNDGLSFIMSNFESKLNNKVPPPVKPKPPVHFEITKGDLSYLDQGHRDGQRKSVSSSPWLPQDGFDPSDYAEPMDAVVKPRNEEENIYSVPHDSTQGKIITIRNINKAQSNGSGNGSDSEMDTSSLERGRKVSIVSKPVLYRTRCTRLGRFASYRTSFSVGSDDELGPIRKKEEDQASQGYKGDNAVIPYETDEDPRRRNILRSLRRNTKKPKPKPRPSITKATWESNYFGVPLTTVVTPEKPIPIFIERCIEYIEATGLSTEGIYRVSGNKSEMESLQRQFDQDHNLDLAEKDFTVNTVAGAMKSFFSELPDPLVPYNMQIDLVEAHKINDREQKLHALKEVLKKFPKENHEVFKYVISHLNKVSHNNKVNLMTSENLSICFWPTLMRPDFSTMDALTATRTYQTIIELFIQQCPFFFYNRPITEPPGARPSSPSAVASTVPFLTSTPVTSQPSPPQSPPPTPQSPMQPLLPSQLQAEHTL
UniProt P08758: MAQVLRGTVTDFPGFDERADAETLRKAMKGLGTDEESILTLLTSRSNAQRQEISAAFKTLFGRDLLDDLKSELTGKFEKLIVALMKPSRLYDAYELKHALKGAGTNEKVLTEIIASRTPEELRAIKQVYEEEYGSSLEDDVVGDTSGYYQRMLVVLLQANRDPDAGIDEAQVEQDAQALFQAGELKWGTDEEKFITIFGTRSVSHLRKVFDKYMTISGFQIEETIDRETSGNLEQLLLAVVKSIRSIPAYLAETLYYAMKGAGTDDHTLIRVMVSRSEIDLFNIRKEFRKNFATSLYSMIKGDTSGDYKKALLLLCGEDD
UniProt Q13795: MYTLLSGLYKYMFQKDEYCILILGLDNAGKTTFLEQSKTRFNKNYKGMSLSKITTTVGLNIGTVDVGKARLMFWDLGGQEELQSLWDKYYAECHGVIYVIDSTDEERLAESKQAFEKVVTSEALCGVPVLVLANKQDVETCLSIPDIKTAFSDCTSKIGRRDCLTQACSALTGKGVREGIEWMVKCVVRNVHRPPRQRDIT
UniProt Q7Z5H3: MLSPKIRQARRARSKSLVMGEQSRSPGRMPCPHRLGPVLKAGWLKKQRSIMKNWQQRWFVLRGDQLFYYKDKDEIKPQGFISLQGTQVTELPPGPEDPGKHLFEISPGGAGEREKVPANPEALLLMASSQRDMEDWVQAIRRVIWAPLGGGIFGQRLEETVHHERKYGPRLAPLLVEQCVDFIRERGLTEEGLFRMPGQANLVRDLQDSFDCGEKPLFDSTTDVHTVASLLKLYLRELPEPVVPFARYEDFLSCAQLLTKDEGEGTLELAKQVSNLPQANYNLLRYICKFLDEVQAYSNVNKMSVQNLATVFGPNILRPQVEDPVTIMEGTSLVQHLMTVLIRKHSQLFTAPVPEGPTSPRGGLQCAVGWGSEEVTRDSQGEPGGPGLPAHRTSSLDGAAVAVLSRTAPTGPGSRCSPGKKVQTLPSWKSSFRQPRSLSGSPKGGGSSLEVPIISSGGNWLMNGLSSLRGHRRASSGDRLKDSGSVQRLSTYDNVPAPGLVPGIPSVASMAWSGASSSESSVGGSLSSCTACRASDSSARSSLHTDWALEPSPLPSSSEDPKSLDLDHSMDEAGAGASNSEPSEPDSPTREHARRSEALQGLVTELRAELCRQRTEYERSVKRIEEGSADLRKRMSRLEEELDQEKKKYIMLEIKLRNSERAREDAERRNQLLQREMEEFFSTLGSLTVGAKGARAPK
UniProt P42331: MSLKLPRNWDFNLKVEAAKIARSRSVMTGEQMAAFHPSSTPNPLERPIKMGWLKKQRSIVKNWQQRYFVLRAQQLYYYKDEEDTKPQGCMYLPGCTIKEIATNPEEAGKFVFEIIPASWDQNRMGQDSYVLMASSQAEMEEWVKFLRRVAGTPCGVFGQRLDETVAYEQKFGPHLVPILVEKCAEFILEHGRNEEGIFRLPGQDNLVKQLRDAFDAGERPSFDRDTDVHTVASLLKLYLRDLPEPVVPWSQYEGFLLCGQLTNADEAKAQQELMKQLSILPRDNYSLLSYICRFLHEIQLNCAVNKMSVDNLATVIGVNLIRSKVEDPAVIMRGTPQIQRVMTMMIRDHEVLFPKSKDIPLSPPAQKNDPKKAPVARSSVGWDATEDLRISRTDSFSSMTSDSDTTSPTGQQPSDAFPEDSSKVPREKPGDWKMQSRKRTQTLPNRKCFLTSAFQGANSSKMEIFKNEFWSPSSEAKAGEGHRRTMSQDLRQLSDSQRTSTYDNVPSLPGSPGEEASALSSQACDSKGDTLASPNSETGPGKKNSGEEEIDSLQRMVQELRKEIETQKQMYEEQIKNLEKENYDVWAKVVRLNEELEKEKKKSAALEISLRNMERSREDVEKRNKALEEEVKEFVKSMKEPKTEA
UniProt Q06481, whole entry, looked up: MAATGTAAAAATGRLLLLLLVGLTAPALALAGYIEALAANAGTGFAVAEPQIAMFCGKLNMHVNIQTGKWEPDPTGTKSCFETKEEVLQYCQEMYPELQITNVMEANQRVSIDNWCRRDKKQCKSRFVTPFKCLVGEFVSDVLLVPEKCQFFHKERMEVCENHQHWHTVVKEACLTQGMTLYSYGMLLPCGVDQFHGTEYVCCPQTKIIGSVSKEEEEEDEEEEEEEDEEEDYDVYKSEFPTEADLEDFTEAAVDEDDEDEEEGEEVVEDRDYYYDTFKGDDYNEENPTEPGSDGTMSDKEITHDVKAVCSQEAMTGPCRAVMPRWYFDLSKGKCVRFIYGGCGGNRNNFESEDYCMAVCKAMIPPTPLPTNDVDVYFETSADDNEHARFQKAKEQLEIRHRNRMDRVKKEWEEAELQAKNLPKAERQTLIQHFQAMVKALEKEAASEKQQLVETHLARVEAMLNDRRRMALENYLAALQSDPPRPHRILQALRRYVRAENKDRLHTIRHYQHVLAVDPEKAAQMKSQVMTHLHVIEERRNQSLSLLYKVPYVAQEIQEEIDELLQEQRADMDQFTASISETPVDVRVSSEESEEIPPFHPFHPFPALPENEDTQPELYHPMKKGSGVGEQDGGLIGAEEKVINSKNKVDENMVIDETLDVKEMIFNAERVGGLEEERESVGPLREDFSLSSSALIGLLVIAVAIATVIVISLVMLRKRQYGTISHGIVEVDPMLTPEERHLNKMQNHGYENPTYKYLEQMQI

volasertib = compound: CC[C@@H]1C(=O)N(C)c2cnc(Nc3ccc(C(=O)N[C@H]4CC[C@H](N5CCN(CC6CC6)CC5)CC4)cc3OC)nc2N1C(C)C [volasertib]
How it was run: as §1

[2] = compound: CC[C@H](C)N1C=C(C2=C(C=C(C=C21)C3=CN=C(C=C3)N4CCNCC4)C(=O)NCC5=C(C=C(NC5=O)C)C)C
How it was run: as §1

epoxomicin = compound: CC[C@H](C)[C@@H](C(=O)N[C@@H]([C@@H](C)O)C(=O)N[C@@H](CC(C)C)C(=O)[C@]1(CO1)C)NC(=O)[C@H]([C@@H](C)CC)N(C)C(=O)C [epoxomicin]
How it was run: as §1

[3] = compound: CCn1cc(-c2ccnc3[nH]c(-c4cccc(CN(C)C)c4)cc23)c(-c2ccc(NC(=O)N(C)C)cc2)n1
How it was run: as §1

[4] = compound: CN(C)CC(=O)Nc1ccc2[nH]c(=O)c3ccccc3c2c1
How it was run: as §1

[5] = compound: CN1C2=C(C3=C1C(=O)N(N=C3)CC4=CC(=CC=C4)N)SC(=C2)S(=O)C
How it was run: as §1

[6] = compound: CN1CCC(CNc2ccc3ncc(-c4cccc(OC(F)(F)F)c4)n3n2)CC1
How it was run: as §1

saracatinib = compound: CN1CCN(CCOc2cc(OC3CCOCC3)c3c(Nc4c(Cl)ccc5c4OCO5)ncnc3c2)CC1 [saracatinib]
How it was run: as §1

sotrastaurin = compound: CN1CCN(c2nc(C3=C(c4c[nH]c5ccccc45)C(=O)NC3=O)c3ccccc3n2)CC1 [sotrastaurin]
How it was run: as §1

Tubastatin A = compound: CN1CCc2c(c3ccccc3n2Cc2ccc(C(=O)NO)cc2)C1 [Tubastatin A]
How it was run: as §1

[7] = compound: CNC(=O)C1=CC=CC=C1NC2=NC(=NC=C2Cl)NC3=C(C=C(C=C3)N4CCOCC4)OC
How it was run: as §1

defactinib = compound: CNC(=O)c1ccc(Nc2ncc(C(F)(F)F)c(NCc3nccnc3N(C)S(C)(=O)=O)n2)cc1 [defactinib]
How it was run: as §1

rucaparib = compound: CNCc1ccc(-c2[nH]c3cc(F)cc4c3c2CCNC4=O)cc1 [rucaparib]
How it was run: as §1

[8] = compound: CNc1nc(-c2ccc3c(N)n[nH]c3c2)cc(N2C[C@@H](C(=O)NC3CCCCC3)CC[C@H]2C)n1
How it was run: as §1

encorafenib = compound: COC(=O)N[C@@H](C)CNc1nccc(-c2cn(C(C)C)nc2-c2cc(Cl)cc(NS(C)(=O)=O)c2F)n1 [encorafenib]
How it was run: as §1

[9] = compound: COC(=O)[C@H](CCSC)NC(=O)C1=C(C=C(C=C1)NC[C@H](CS)N)C2=CC=CC=C2
How it was run: as §1

rosiglitazone = compound: CN(CCOC1=CC=C(C=C1)C[C@H]2C(=O)NC(=O)S2)C3=CC=CC=N3 (racemic) [rosiglitazone]
How it was run: as §1

alvocidib = compound: CN1CC[C@H](c2c(O)cc(O)c3c(=O)cc(-c4ccccc4Cl)oc23)[C@H](O)C1 [alvocidib]
How it was run: as §1

[10] = compound: CCn1c(C(=O)N(C2CC2)C2CC2)cc2c3c(ncn3C)c(Nc3cc(C)n(C)n3)nc21
How it was run: as §1

Measured: log2 fold change

AP2B1 isoform 2 (UniProt P63010)
inactive: [1] 0.065 | volasertib -0.064 | [2] -0.001 | epoxomicin -0.004 | [3] -0.021 | [4] -0.007 | [5] -0.016 | [6] 0.045 | saracatinib 0.057 | sotrastaurin -0.003 | Tubastatin A 0.001 | [7] 0.022 | defactinib 0.005 | rucaparib 0.043 | [8] -0.011 | encorafenib 0.027 | [9] 0.005

ARAF (UniProt P10398)
inactive: [1] 0.053 | volasertib 0.311 | [2] 0.129 | epoxomicin 0.013 | [3] -0.002 | [4] 0.054 | [5] -0.025 | [6] -0.132 | saracatinib 0.037 | sotrastaurin -0.022 | Tubastatin A -0.004 | [7] -0.084 | defactinib -0.023 | rucaparib 0.01 | [8] 0.023 | encorafenib 0.177 | [9] -0.067

AP1S2 (UniProt P56377)
inactive: [1] -0.013 | volasertib -0.078 | [2] 0.003 | epoxomicin 0.065 | [3] -0.14 | rosiglitazone 0.037 | [5] 0.126 | [6] -0.006 | saracatinib 0.14 | sotrastaurin -0.023 | alvocidib 0.085 | rucaparib -0.03 | [8] -0.004 | encorafenib -0.031

AP2A2 isoform 2 (UniProt O94973)
inactive: [1] 0.026 | volasertib -0.021 | [2] 0 | epoxomicin 0.048 | [3] -0.012 | [4] 0 | [5] 0.008 | [6] 0.089 | saracatinib 0.006 | sotrastaurin -0.028 | Tubastatin A 0.022 | [7] 0.022 | defactinib -0.006 | rucaparib 0.077 | [8] -0.053 | encorafenib -0.002 | [9] -0.008

ANKRD29 (UniProt Q8N6D5)
inactive: [1] -0.021 | volasertib -0.27 | [2] -0.152 | epoxomicin 0 | [3] -0.233 | [4] 0.025 | [5] -0.039 | [6] -0.043 | saracatinib -0.089 | sotrastaurin -0.011 | Tubastatin A 0.27 | [7] -0.02 | defactinib -0.04 | rucaparib -0.227 | [8] 0.118 | encorafenib 0 | [9] -0.038

ARFGAP1 (UniProt Q8N6T3)
inactive: [1] -0.182 | [2] 0.056 | epoxomicin 0.026 | [3] 0.008 | [4] 0.036 | [5] -0.016 | [6] 0.068 | saracatinib -0.021 | sotrastaurin -0.086 | Tubastatin A 0.034 | [7] 0.068 | defactinib -0.158 | rucaparib -0.048 | [8] -0.087 | encorafenib 0.068 | [9] -0.044
active: volasertib -0.545

AP2M1 (UniProt C9JTK4)
inactive: [1] 0.03 | [2] -0.051 | epoxomicin 0.027 | [4] -0.243 | [5] -0.049 | saracatinib -0.109 | sotrastaurin 0.055 | Tubastatin A -0.045 | defactinib -0.053 | rucaparib 0.07 | [8] -0.019 | encorafenib -0.048 | [9] 0.193

APOD (UniProt P05090)
inactive: [1] -0.038 | volasertib -0.177 | [2] 0.139 | [10] -0.057 | [4] 0.678 | sotrastaurin -0.227 | alvocidib -0.146 | Tubastatin A 0.22 | [7] 0.732 | defactinib 0.052 | rucaparib -0.045 | encorafenib -0.008 | [9] 0.25

ARF4 (UniProt P18085)
inactive: [1] 0.064 | volasertib 0.094 | [2] 0.009 | epoxomicin 0.112 | [3] 0.014 | [4] 0.041 | [5] -0.076 | [6] 0.097 | saracatinib 0.052 | sotrastaurin 0.028 | Tubastatin A 0.011 | [7] 0.028 | defactinib -0.005 | rucaparib -0.051 | [8] -0.004 | encorafenib 0 | [9] -0.032

ARHGAP35 (UniProt Q9NRY4)
inactive: [1] -0.028 | volasertib -0.11 | epoxomicin 0.01 | [10] -0.107 | [3] -0.007 | [4] -0.159 | [5] 0.255 | [6] -0.041 | saracatinib -0.403 | alvocidib 0.002 | Tubastatin A 0.051 | [7] 0.007 | defactinib 0.013 | rucaparib 0.118 | [8] -0.038 | encorafenib 0.212 | [9] 0.047

ANGPTL3 (UniProt Q9Y5C1)
inactive: [1] 0.052 | volasertib 0.211 | epoxomicin -0.193 | [10] 0.284 | [4] -0.1 | rosiglitazone -0.144 | [5] 0.138 | saracatinib -0.01 | sotrastaurin -0.007 | alvocidib -0.063 | Tubastatin A -0.019 | [7] 0.282 | defactinib -0.026 | rucaparib 0.002 | [8] 0.13 | encorafenib -0.036 | [9] -0.003

ANXA5 (UniProt P08758)
active: volasertib -0.214
inactive: [1] -0.084 | [2] 0.04 | epoxomicin 0.068 | [3] -0.041 | [4] 0.012 | [5] -0.04 | [6] -0.042 | saracatinib -0.023 | sotrastaurin -0.038 | Tubastatin A -0.006 | [7] 0.039 | defactinib -0.082 | rucaparib -0.001 | [8] 0.012 | encorafenib 0.083 | [9] -0.062

APOBEC3F (UniProt Q8IUX4)
inactive: [1] 0.101 | volasertib 0.154 | epoxomicin -0.327 | rosiglitazone -0.008 | [5] 0.133 | saracatinib -0.006 | alvocidib 0.188 | rucaparib 0.133 | [8] -0.057 | encorafenib -0.069

ARFRP1 (UniProt Q13795)
inactive: [1] -0.038 | volasertib -0.05 | [2] 0.048 | epoxomicin 0.037 | [3] -0.23 | [4] 0.012 | [5] -0.021 | [6] 0.071 | saracatinib 0.108 | sotrastaurin -0.035 | Tubastatin A -0.059 | [7] 0.037 | defactinib 0.01 | rucaparib 0.033 | [8] 0.031 | encorafenib -0.027 | [9] -0.137

Quoted from the results shown (two entries):
ARHGAP35 (UniProt Q9NRY4)
inactive: [1] -0.028 | volasertib -0.11 | epoxomicin 0.01 | [10] -0.107 | [3] -0.007 | [4] -0.159 | [5] 0.255 | [6] -0.041 | saracatinib -0.403 | alvocidib 0.002 | Tubastatin A 0.051 | [7] 0.007 | defactinib 0.013 | rucaparib 0.118 | [8] -0.038 | encorafenib 0.212 | [9] 0.047

ANGPTL3 (UniProt Q9Y5C1)
inactive: [1] 0.052 | volasertib 0.211 | epoxomicin -0.193 | [10] 0.284 | [4] -0.1 | rosiglitazone -0.144 | [5] 0.138 | saracatinib -0.01 | sotrastaurin -0.007 | alvocidib -0.063 | Tubastatin A -0.019 | [7] 0.282 | defactinib -0.026 | rucaparib 0.002 | [8] 0.13 | encorafenib -0.036 | [9] -0.003

Next part

ARHGAP22 isoform 2 (UniProt Q7Z5H3)
inactive: [1] 0.062 | volasertib -0.126 | [3] -0.179 | [4] -0.004 | [6] -0.039 | sotrastaurin -0.132 | Tubastatin A 0.057 | defactinib -0.017 | rucaparib 0.063 | encorafenib -0.036 | [9] 0.045

ARHGAP25 isoform 4 (UniProt P42331)
inactive: [1] -0.031 | [2] -0.031 | epoxomicin 0.083 | [3] 0.072 | [4] 0.134 | [5] 0.127 | [6] -0.221 | saracatinib 0.249 | Tubastatin A 0.079 | [7] -0.023 | defactinib 0.02 | rucaparib 0.168 | [8] 0.131 | encorafenib 0.212 | [9] -0.212

APLP2 (UniProt Q06481)
inactive: [1] 0.076 | volasertib -0.04 | [2] -0.092 | epoxomicin 0.017 | [3] 0.006 | [4] -0.106 | [5] -0.004 | [6] 0.179 | saracatinib 0.072 | sotrastaurin 0.094 | Tubastatin A 0.014 | [7] 0.009 | defactinib -0.055 | rucaparib -0.082 | [8] -0.051 | encorafenib 0.02 | [9] 0.051

ARID4B (UniProt Q4LE39)
inactive: Tubastatin A 0.103
